Assay results as given in US7981915B2, “Methods for modulating PPAR biological activity for the treatment of diseases caused by mutations in the CFTR gene” (Beth Israel Deaconess Medical Center, priority 2003, dated 2011).

System: bile duct injury
Assay: Dextran sodium sulfate induced bile duct injury, liver histology
Format: in vivo, mice

## dextran sodium sulfate [DSS]
PPARα−/− mice and WT controls, 5% DSS in drinking water for 7 days
  bile duct injury, liver histology: did not induce bile duct injury
cftr−/− mice treated with DSS
  bile duct injury, liver histology: periductular mononuclear cell infiltrates, some neutrophils, and bile duct proliferation
